Like-named read-outs stand apart in the source and are kept apart here. Results are given in words; binding and its absence hold for the method and conditions named. In cells and extracts the contact can be indirect. Some entries that bind do so weakly or less than the wild type. For some assays here: Sequences can lack the tags named with a protein.

The chains behind the UniProt entries cited, without tags or fusion partners. Where a name states a change or a piece, a line headed by the entry shows the natural chain unless it says otherwise. A line that says so, or that is headed by a name, gives the form on record, which may keep a tag or linker.
UniProt Q9VQ93: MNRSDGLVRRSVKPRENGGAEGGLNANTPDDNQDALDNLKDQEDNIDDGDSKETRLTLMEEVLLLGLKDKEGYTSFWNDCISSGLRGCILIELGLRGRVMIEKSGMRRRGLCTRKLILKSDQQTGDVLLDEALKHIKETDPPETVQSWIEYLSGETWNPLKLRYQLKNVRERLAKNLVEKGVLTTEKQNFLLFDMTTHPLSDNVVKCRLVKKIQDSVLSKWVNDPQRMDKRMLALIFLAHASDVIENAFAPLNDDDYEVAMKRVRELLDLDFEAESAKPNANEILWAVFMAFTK
UniProt P29742: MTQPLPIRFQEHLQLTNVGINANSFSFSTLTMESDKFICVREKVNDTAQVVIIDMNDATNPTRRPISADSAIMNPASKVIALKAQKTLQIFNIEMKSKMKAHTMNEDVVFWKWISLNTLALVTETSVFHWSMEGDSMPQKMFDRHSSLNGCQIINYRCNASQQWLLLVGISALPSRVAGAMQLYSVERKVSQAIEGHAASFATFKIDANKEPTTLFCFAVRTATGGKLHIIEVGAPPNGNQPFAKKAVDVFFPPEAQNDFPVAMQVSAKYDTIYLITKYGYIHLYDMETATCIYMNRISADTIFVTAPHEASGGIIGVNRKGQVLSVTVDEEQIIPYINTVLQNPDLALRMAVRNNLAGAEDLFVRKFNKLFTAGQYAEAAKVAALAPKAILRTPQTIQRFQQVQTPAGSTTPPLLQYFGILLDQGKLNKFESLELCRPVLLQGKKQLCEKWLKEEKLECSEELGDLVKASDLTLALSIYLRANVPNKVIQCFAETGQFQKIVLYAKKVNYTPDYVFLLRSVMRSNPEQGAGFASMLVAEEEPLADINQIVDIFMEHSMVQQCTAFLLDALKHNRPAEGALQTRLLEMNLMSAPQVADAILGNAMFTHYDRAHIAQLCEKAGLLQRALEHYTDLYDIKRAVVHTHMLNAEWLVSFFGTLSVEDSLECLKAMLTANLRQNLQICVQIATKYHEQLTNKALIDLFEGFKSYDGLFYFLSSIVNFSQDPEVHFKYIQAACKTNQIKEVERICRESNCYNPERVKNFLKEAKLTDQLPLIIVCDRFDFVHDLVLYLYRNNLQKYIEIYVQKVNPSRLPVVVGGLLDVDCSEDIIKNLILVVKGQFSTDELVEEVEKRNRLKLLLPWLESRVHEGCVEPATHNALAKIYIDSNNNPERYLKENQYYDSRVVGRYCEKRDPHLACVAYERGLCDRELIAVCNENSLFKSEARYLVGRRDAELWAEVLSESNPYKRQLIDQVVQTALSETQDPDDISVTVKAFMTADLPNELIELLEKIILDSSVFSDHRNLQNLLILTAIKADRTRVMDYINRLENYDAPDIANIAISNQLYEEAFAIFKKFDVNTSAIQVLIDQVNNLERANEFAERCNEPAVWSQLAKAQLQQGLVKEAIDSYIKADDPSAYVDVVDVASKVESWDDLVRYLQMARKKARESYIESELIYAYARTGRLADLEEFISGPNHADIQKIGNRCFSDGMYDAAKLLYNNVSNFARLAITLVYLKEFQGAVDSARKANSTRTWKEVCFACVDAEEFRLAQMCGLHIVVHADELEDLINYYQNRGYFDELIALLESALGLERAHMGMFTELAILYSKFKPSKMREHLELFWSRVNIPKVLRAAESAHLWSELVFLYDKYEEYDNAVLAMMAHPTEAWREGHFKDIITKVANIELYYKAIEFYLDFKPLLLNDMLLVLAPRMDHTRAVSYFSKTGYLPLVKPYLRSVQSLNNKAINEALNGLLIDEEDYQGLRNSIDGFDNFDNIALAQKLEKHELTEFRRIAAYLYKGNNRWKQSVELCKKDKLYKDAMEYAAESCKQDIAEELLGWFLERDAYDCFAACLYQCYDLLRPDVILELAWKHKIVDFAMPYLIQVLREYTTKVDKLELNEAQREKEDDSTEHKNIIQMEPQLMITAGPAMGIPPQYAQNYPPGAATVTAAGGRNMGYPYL
Zipper (Myosin II heavy chain), endogenous in S2 cells (Q99323, form named): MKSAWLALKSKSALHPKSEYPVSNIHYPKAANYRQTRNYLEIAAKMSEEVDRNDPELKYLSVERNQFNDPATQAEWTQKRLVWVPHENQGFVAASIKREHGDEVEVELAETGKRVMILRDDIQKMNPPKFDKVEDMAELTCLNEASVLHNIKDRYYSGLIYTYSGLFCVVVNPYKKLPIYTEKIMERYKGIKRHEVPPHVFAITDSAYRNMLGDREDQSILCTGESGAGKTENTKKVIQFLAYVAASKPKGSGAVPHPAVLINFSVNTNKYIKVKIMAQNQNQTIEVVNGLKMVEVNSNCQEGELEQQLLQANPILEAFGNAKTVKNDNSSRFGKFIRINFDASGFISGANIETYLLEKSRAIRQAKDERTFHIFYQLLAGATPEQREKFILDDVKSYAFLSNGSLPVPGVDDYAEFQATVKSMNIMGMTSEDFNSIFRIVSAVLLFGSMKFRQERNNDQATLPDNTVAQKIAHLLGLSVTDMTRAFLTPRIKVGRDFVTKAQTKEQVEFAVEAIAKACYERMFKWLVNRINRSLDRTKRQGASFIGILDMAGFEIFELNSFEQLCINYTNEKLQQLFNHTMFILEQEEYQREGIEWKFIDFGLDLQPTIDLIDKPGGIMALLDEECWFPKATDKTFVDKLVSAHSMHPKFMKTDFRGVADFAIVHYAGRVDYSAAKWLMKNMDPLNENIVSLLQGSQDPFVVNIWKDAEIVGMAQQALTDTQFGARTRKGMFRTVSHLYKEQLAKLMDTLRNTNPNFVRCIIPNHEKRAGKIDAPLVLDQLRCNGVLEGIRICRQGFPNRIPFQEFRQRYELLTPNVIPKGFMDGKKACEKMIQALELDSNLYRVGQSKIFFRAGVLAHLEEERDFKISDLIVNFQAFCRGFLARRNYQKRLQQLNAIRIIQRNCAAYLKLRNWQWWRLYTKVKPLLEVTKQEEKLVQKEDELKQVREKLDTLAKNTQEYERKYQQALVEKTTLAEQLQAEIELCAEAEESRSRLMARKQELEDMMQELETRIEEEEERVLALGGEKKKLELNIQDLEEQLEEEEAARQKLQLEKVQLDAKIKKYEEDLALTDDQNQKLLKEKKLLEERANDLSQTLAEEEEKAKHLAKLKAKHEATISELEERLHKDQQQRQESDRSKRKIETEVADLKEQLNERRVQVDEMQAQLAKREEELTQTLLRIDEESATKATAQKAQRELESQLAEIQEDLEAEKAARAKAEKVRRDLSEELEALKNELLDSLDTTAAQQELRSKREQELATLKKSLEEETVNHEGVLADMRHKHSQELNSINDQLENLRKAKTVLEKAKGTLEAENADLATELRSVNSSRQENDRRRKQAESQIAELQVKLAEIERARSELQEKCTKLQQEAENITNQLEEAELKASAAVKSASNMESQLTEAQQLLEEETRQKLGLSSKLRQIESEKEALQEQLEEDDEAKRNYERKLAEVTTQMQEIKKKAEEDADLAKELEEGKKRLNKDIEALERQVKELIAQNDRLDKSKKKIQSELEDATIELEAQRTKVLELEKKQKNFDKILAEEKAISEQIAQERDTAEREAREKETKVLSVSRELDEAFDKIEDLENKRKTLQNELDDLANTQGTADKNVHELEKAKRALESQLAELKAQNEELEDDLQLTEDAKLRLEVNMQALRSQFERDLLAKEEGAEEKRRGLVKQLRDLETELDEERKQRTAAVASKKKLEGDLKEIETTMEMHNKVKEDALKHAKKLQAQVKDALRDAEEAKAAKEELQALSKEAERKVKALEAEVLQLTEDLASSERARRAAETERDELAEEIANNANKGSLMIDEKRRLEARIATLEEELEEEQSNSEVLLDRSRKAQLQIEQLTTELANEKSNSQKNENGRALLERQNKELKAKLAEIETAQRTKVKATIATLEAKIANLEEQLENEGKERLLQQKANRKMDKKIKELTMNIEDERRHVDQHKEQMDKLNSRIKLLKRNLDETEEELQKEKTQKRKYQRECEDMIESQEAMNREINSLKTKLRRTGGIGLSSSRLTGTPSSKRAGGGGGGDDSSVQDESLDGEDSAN

Assay [1] deals with GFP-GOLPH3 expressed in testes (Drosophila melanogaster) (UniProt Q9VQ93). The assay can be described thus: co-IP; lysate of 400 adult testes expressing GFP-GOLPH3, mouse monoclonal anti-GFP and protein G-sepharose, non-specific mouse IgG as control; blotted for Zipper.
The target of assay [2] is GST-GOLPH3 (GST-full-length Drosophila GOLPH3) (Drosophila melanogaster) (UniProt Q9VQ93). In words: pull-down; GST-GOLPH3 bound to Glutathione-Sepharose 4B beads incubated with testis lysate, 4°C, two hours; lysis buffer 25 mM Tris-HCl pH 7.4, 150 mM NaCl, 0.5% NP-40, 1 mM EDTA; Western blot; only the target purified.
Assay [3] addresses T1, GFP-Rab11 expressed in testes (Drosophila) (UniProt O18335).
T1 sequence: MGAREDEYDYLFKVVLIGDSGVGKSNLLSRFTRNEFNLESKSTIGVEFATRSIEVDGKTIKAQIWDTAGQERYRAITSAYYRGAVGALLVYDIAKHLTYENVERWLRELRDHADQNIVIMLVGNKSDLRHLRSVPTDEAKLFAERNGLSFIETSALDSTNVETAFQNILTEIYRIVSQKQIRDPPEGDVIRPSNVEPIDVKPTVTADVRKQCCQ
The assay can be described thus: co-IP; testis extracts expressing GFP- or RFP-tagged proteins, GFP/RFP trap-A beads (ChromoTek), control binding beads as control; blotted for GOLPH3.

For assay [4], the target named is Clathrin heavy chain tagged with RFP (Chc-RFP), expressed in testes (UniProt P29742). The assay is described as above.
The target in assay [5] is T2, GFP-Rab5 expressed in testes (UniProt Q9V3I2).
T2 sequence: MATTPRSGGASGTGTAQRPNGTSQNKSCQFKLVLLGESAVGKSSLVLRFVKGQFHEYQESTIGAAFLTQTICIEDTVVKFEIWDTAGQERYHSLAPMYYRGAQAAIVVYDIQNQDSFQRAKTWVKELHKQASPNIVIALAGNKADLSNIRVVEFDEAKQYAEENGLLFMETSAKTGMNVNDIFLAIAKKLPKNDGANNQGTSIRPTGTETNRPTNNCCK
Described as above.

The target of assay [6] is GFP-GOLPH3 expressed in S2 cells (Drosophila melanogaster) (UniProt Q9VQ93). In words: co-IP; extracts of S2 cells transfected with Vps35-Flag and GFP-GOLPH3 (or GFP), GFP-trap; blotted for Zipper and Flag.
Assay [7] addresses GST-GOLPH3 (GST-full-length Drosophila GOLPH3) (Drosophila melanogaster) (UniProt Q9VQ93). In words: pull-down; GST-GOLPH3 bound to Glutathione-Sepharose 4B beads incubated with testis lysate, 4°C, two hours; lysis buffer 25 mM Tris-HCl pH 7.4, 150 mM NaCl, 0.5% NP-40, 1 mM EDTA; Western blot; only the target purified. This is another data set of the same source.

Take “Zipper (Myosin II heavy chain), endogenous in testes (from UniProt Q99323 1-2056)”: the binding result in assay [1] and in assay [2] was “binds” throughout.
Regarding “Drosophila GOLPH3, endogenous in testes (from UniProt Q9VQ93 1-294)”, the binding entry in assay [3], in assay [4] and in assay [5] was “binds” in each case.
On to “Zipper (Myosin II heavy chain), endogenous in S2 cells (from UniProt Q99323 1-2056)”, for which the binding entry in assay [6] is “binds”.

B1: Clathrin light chain tagged with GFP (Clc-GFP), expressed in testes (protein, UniProt Q9VWA1 1-219)
chain: MDFGDDFAAKEDVDPAAEFLAREQSALGDLEAEITGGSASAPPAASTDEGLGELLGGTASEGDLLSAGGTGGLESSTGSFEVIGGESNEPVGISGPPPSREEPEKIRKWREEQKQRLEEKDIEEERKKEELRQQSKKELDDWLRQIGESISKTKLASRNAEKQAATLENGTIEPGTEWERIAKLCDFNPKVNKAGKDVSRMRSIYLHLKQNPIQVQKST
As to B1, the binding entry in assay [7] is listed as “binds”.

B2: Drosophila Rab11, GST removed (analyte of the SPR experiment) (natural protein, UniProt O18335 1-214, looked up)
chain: MGAREDEYDYLFKVVLIGDSGVGKSNLLSRFTRNEFNLESKSTIGVEFATRSIEVDGKTIKAQIWDTAGQERYRAITSAYYRGAVGALLVYDIAKHLTYENVERWLRELRDHADQNIVIMLVGNKSDLRHLRSVPTDEAKLFAERNGLSFIETSALDSTNVETAFQNILTEIYRIVSQKQIRDPPEGDVIRPSNVEPIDVKPTVTADVRKQCCQ
notes: Drosophila Rab11, full-length, made as GST fusion; source: E. coli BL21-CodonPlus [DE3], purified as GST fusion, GST cleaved off with PreScission Protease
B2: the binding entry in assay [7] was “binds”.

(Values after PMC4006750, “GOLPH3 Is Essential for Contractile Ring Formation and Rab11 Localization to the Cleavage Site during Cytokinesis in Drosophila melanogaster” (PLoS Genetics, 2014).)
